Data source: PubChem BioAssay AID1053208 (Peter MacCallum Cancer Centre, 2014)
Test: 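Genes whose silencing cuts survival of bone tumour cells only with doxorubicin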 (primary screen). Cells: mouse osteosarcoma cells, early-passage culture from an engineered mouse model of fibroblastic bone tumour. Reagents: siRNA pool against mouse genes, 40 nM. Timing: about 120 h (48 h before drug, then 72 h with drug). Challenge: doxorubicin 100 nM for 72 h, roughly 30-40% inhibitory dose. Measured: 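Luminescent ATP signal taken as viability with or without 100 nM doxorubicin for 72 h; mean of two wells set against non-targeting siRNA and turned into robust z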. Scale: viability z-score with doxorubicin: higher = more viable cells under doxorubicin; viability z-score without drug: higher = more viable cells with knock-down alone. Rule for the call: 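a pool counts as active when its viability z-score with doxorubicin is -2 or below and its z-score without drug lies between -2 and 2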.
In all, the deposit lists about 17,000 reagents; this is an unselected part. 788 of them (4.7%) were called active. 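Calls rest on z-score classes alone; an extra cut-off of viability at most 70% of control was not applied to them.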 Reagents against one gene are numbered here. Further read-outs or replicates are left out here. Reagent sequences are not shown.

Gene | reagent | combined z-score class | viability z-score with doxorubicin | viability z-score without drug | call
6720467O09RIK | 1 | no change with or without drug | 0.22 | -0.17 | inactive
Dgkq (GeneID 110524) | 1 | no change with or without drug | -0.22 | -0.17 | inactive
Insm1 (GeneID 53626) | 1 | no change with or without drug | 0.9 | 0.34 | inactive
Psmb3 (GeneID 26446) | 1 | low cell count with and without drug | -5.62 | -3.37 | inactive
Zfp592 (GeneID 233410) | 1 | no change with or without drug | 0.11 | -0.51 | inactive
Igf2r (GeneID 16004) | 1 | no change with or without drug | -0.67 | 0.84 | inactive
Scfd2 (GeneID 212986) | 1 | no change with or without drug | -0.45 | 0.51 | inactive
Dag1 (GeneID 13138) | 1 | no change with or without drug | 0.11 | 0.84 | inactive
Vsnl1 (GeneID 26950) | 1 | no change with or without drug | -0.22 | 0.67 | inactive
Sema3e (GeneID 20349) | 1 | no change with or without drug | -0.22 | 0.34 | inactive
Sema3e (GeneID 20349) | 2 | no change with or without drug | 0 | 0.17 | inactive
Rchy1 (GeneID 68098) | 1 | no change with or without drug | 0.56 | -0.34 | inactive
Bms1 (GeneID 213895) | 1 | no change with or without drug | 0 | -1.85 | inactive
Asgr1 (GeneID 11889) | 1 | no change with or without drug | -0.56 | -1.52 | inactive
Mfap1a (GeneID 67532) | 1 | no change with or without drug | -1.35 | -0.84 | inactive
Tubgcp3 (GeneID 259279) | 1 | no change with or without drug | -1.12 | -1.52 | inactive
Ly6i (GeneID 57248) | 1 | no change with or without drug | 1.46 | 1.01 | inactive
Prkcb (GeneID 18751) | 1 | high cell count with doxorubicin only | 2.81 | 1.35 | inactive
Nek3 (GeneID 23954) | 1 | no change with or without drug | 0.45 | 0.67 | inactive
Naa10 (GeneID 56292) | 1 | no change with or without drug | -0.79 | -0.84 | inactive
Dhfr (GeneID 13361) | 1 | no change with or without drug | -0.34 | -0.51 | inactive
H2ac25 (GeneID 319162) | 1 | no change with or without drug | -0.67 | -0.51 | inactive
Slc6a1 (GeneID 232333) | 1 | no change with or without drug | 1.24 | 0.84 | inactive
Smr3a (GeneID 20599) | 1 | no change with or without drug | 0.11 | 0.51 | inactive
Smr3a (GeneID 20599) | 2 | no change with or without drug | -0.45 | 0.84 | inactive
Serinc1 (GeneID 56442) | 1 | no change with or without drug | 1.24 | -0.84 | inactive
Fkbpl (GeneID 56299) | 1 | no change with or without drug | -0.22 | 1.85 | inactive
Plaa (GeneID 18786) | 1 | no change with or without drug | 1.35 | 1.52 | inactive
Retreg3 (GeneID 67998) | 1 | no change with or without drug | 0.34 | 1.01 | inactive
Alyreffm1 (GeneID 70988) | 1 | high cell count without drug only | 0.34 | 3.2 | inactive
Allc (GeneID 94041) | 1 | no change with or without drug | 0 | 0.17 | inactive
Prim2 (GeneID 19076) | 1 | no change with or without drug | -1.12 | -0.51 | inactive
Fam149b (GeneID 105428) | 1 | low cell count with doxorubicin only | -2.25 | -1.18 | active
P2ry6 (GeneID 233571) | 1 | no change with or without drug | -0.9 | 0.84 | inactive
Zc3h12d (GeneID 237256) | 1 | no change with or without drug | 0.9 | 0.84 | inactive
Snhg11 (GeneID 319317) | 1 | no change with or without drug | 0.34 | -0.67 | inactive
Gm6740 (GeneID 627232) | 1 | no change with or without drug | -1.24 | -0.51 | inactive
Klk1b16 (GeneID 16615) | 1 | no change with or without drug | 0.45 | 0.17 | inactive
Cpne7 (GeneID 102278) | 1 | no change with or without drug | -1.24 | -1.52 | inactive
Hemgn (GeneID 93966) | 1 | no change with or without drug | 0.56 | 1.18 | inactive
Bmp2 (GeneID 12156) | 1 | no change with or without drug | 0.67 | -0.51 | inactive
Susd2 (GeneID 71733) | 1 | no change with or without drug | 0.22 | 0.34 | inactive
Grsf1 (GeneID 231413) | 1 | no change with or without drug | -0.11 | 0.51 | inactive
Cmtm7 (GeneID 102545) | 1 | no change with or without drug | 0.67 | 0.51 | inactive
Arf1 (GeneID 11840) | 1 | no change with or without drug | -1.01 | -1.69 | inactive
Clcc1 (GeneID 229725) | 1 | no change with or without drug | -0.45 | -0.51 | inactive
Padi6 (GeneID 242726) | 1 | no change with or without drug | -0.67 | 1.18 | inactive
Trappc11 (GeneID 320714) | 1 | no change with or without drug | 0.9 | 1.18 | inactive
Sowahc (GeneID 268301) | 1 | no change with or without drug | 1.57 | 0.84 | inactive
Pcsk2 (GeneID 18549) | 1 | low cell count with doxorubicin only | -2.02 | -0.17 | active

Ordered by “viability z-score without drug” (lowest first): some entries from above
Gene | reagent | combined z-score class | viability z-score with doxorubicin | viability z-score without drug | call
Cpne7 (GeneID 102278) | 1 | no change with or without drug | -1.24 | -1.52 | inactive
Snhg11 (GeneID 319317) | 1 | no change with or without drug | 0.34 | -0.67 | inactive
Gm6740 (GeneID 627232) | 1 | no change with or without drug | -1.24 | -0.51 | inactive
Klk1b16 (GeneID 16615) | 1 | no change with or without drug | 0.45 | 0.17 | inactive
Zc3h12d (GeneID 237256) | 1 | no change with or without drug | 0.9 | 0.84 | inactive
